According to patent US8440810B2, “Riboswitches, methods for their use, and compositions for use with riboswitches” (Yale University, priority 2002, dated 2013):
Some of these results come from one statement about several compounds together.

Assays:
93 xpt RNA = assay: In-line probing of 93 xpt RNA; type: binding, B. subtilis
240 thiC RNA = assay: In-line probing of 240 thiC RNA; type: binding, E. coli; conditions: b521 worded for TPP riboswitches
Procedure: Some RNAs were subjected to no reaction, partial digestion with alkali, or partial digestion with RNase T1 (G-specific cleavage) (see FIG. 6a). Composite plots of the fraction of RNA cleaved at specific sites versus the logarithm of the concentration of ligand (e.g. FIG. 7a) were generated to provide an estimate of the apparent KD. Fraction cleaved values were normalized relative to the highest and lowest cleavage values measured for each site. […] Reactions were conducted and analyzed as described in above for FIG. 6A. […] The truncated RNA 111 thiC is boxed. Nucleotides enclosed in boxes identify an alternative pairing.

201 xpt RNA = assay: In-line probing of 201 xpt RNA; conditions: FIG. 26 legend

| SMILES | loss in apparent KD relative to guanine (93 xpt RNA) | Kd (201 xpt RNA) | further results |
| --- | --- | --- | --- |
| Nc1ncc2[nH]cnc2n1 [2-aminopurine] | > 10,000 fold |  |  |
| Cc1ncc(C[n+]2csc(CCOP(=O)(O)O)c2C)c(N)n1 [TP, thiamine monophosphate] |  |  | discrimination relative to TPP (240 thiC RNA): more than 1,000 fold |
| Nc1nc2c(ncn2[C@@H]2O[C@H](CO)[C@@H](O)[C@H]2O)c(=O)[nH]1 [guanosine] |  | > 100 µM |  |
| OC[C@H]1O[C@@H](n2cnc3c(O)ncnc32)[C@H](O)[C@@H]1O [inosine] |  | > 100 µM |  |

More lines, main results first:

| loss in apparent KD relative to guanine (93 xpt RNA) | Kd (201 xpt RNA) | SMILES | further results |
| --- | --- | --- | --- |
| > 10,000 fold |  | Cc1nc2[nH]c(=O)[nH]c(=O)c2[nH]1 [8-methylxanthine] |  |
| > 10,000 fold |  | O=c1[nH]c(=O)c2[nH]c(=O)[nH]c2[nH]1 [uric acid] |  |
